The other results are listed elsewhere or left out.
Columns and labels:
Test in all cases: glycan array binding signal (z-score within array); higher = stronger binding
Conditions in all cases: glycan notation: IUPAC condensed, linker removed
[1] = target: GlcNAc(b1-4)GlcNAc(b1-4)GlcNAc(b1-4)GlcNAc(b1-4)GlcNAc(b1-4)GlcNAc
Summary of the method: (§1)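 Glycan array data came from 3228 arrays in the Consortium for Functional Glycomics database, and only arrays with an available protein sequence were kept. Glycan names were put into IUPAC-condensed notation, and columns mapping to the same glycan were averaged. The binding signal is a within-array Z-score, averaged across arrays of one protein sequence run at different concentrations or buffers and across linkers. A negative Z-score can be read as non-binding.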

[2] = target: GlcNAc(b1-4)[GlcNAc(b1-6)]GalNAc
Summary of the method: as §1

[3] = target: GlcNAc(b1-6)Gal(b1-4)GlcNAc
Summary of the method: as §1

[4] = target: GlcNAc(b1-6)GalNAc
Summary of the method: as §1

[5] = target: GlcNAc3Prop(b1-4)GlcNAc
Summary of the method: as §1

[6] = target: GlcNAc6S(b1-3)Gal(b1-4)GlcNAc
Summary of the method: as §1

[7] = target: Kdn(a2-3)Gal(b1-3)GalNAc
Summary of the method: as §1

[8] = target: Kdn(a2-3)Gal(b1-3)GlcNAc
Summary of the method: as §1

[9] = target: Kdn(a2-3)Gal(b1-4)Glc
Summary of the method: as §1

[10] = target: Kdn(a2-3)Gal(b1-4)GlcNAc
Summary of the method: as §1

[11] = target: Kdn(a2-3)Gal(b1-4)[Fuc(a1-3)]GlcNAc
Summary of the method: as §1

[12] = target: Kdn(a2-6)Gal(b1-4)GlcNAc
Summary of the method: as §1

[13] = target: Man(a1-2)Man(a1-2)Man(a1-3)Man
Summary of the method: as §1

[14] = target: Man(a1-2)Man(a1-2)Man(a1-6)[Man(a1-3)]Man
Summary of the method: as §1

[15] = target: Man(a1-2)Man(a1-3)Man
Summary of the method: as §1

[16] = target: Man(a1-2)Man(a1-3)[Man(a1-2)Man(a1-6)]Man
Summary of the method: as §1

[17] = target: Man(a1-2)Man(a1-3)[Man(a1-2)Man(a1-6)]Man(a1-6)[Man(a1-2)Man(a1-2)Man(a1-3)]Man
Summary of the method: as §1

[18] = target: Man(a1-2)Man(a1-3)[Man(a1-2)Man(a1-6)]Man(a1-6)[Man(a1-2)Man(a1-2)Man(a1-3)]Man(b1-4)GlcNAc(b1-4)GlcNAc
Summary of the method: as §1

[19] = target: Man(a1-2)Man(a1-3)[Man(a1-6)]Man(a1-6)[Man(a1-2)Man(a1-3)]Man(b1-4)GlcNAc(b1-4)GlcNAc
Summary of the method: as §1

[20] = target: Man(a1-2)Man(a1-6)[Man(a1-3)]Man(a1-6)[Man(a1-2)Man(a1-2)Man(a1-3)]Man
Summary of the method: as §1

[21] = target: Man(a1-2)Man(a1-6)[Man(a1-3)]Man(a1-6)[Man(a1-2)Man(a1-2)Man(a1-3)]Man(b1-4)GlcNAc(b1-4)GlcNAc
Summary of the method: as §1

[22] = target: Man(a1-3)[Man(a1-6)]Man
Summary of the method: as §1

[23] = target: Man(a1-3)[Man(a1-6)]Man(a1-6)[Man(a1-2)Man(a1-3)]Man(b1-4)GlcNAc(b1-4)GlcNAc
Summary of the method: as §1

[24] = target: Man(a1-3)[Man(a1-6)]Man(a1-6)[Man(a1-3)]Man
Summary of the method: as §1

[25] = target: Man(a1-3)[Man(a1-6)]Man(a1-6)[Man(a1-3)]Man(b1-4)GlcNAc(b1-4)GlcNAc
Summary of the method: as §1

[26] = target: Man(a1-3)[Man(a1-6)]Man(b1-4)GlcNAc(b1-4)GlcNAc
Summary of the method: as §1

[27] = target: Man(a1-6)Man
Summary of the method: as §1

[28] = target: Man(b1-4)GlcNAc
Summary of the method: as §1

[29] = target: Neu5Ac(a2-3)Gal
Summary of the method: as §1

[30] = target: Neu5Ac(a2-3)Gal(b1-3)GalNAc
Summary of the method: as §1

[31] = target: Neu5Ac(a2-3)Gal(b1-3)GalNAc(b1-3)Gal(a1-4)Gal(b1-4)Glc
Summary of the method: as §1

[32] = target: Neu5Ac(a2-3)Gal(b1-3)GalNAc(b1-3)Gal(b1-4)GlcNAc
Summary of the method: as §1

[33] = target: Neu5Ac(a2-3)Gal(b1-3)GalNAc(b1-4)[Neu5Ac(a2-3)]Gal(b1-4)Glc
Summary of the method: as §1

[34] = target: Neu5Ac(a2-3)Gal(b1-3)GalNAc6S
Summary of the method: as §1

[35] = target: Neu5Ac(a2-3)Gal(b1-3)GlcNAc
Summary of the method: as §1

[36] = target: Neu5Ac(a2-3)Gal(b1-3)GlcNAc(b1-2)Man(a1-3)[Neu5Ac(a2-3)Gal(b1-3)GlcNAc(b1-2)Man(a1-6)]Man(b1-4)GlcNAc(b1-4)GlcNAc
Summary of the method: as §1

[37] = target: Neu5Ac(a2-3)Gal(b1-3)GlcNAc(b1-3)Gal(b1-3)GlcNAc
Summary of the method: as §1

[38] = target: Neu5Ac(a2-3)Gal(b1-3)GlcNAc(b1-3)Gal(b1-4)GlcNAc
Summary of the method: as §1

[39] = target: Neu5Ac(a2-3)Gal(b1-3)GlcNAc(b1-3)GalNAc
Summary of the method: as §1

[40] = target: Neu5Ac(a2-3)Gal(b1-3)GlcNAc6S
Summary of the method: as §1

[41] = target: Neu5Ac(a2-3)Gal(b1-3)[Fuc(a1-4)]GlcNAc
Summary of the method: as §1

[42] = target: Neu5Ac(a2-3)Gal(b1-3)[Fuc(a1-4)]GlcNAc(b1-3)Gal(b1-3)[Fuc(a1-4)]GlcNAc
Summary of the method: as §1

[43] = target: Neu5Ac(a2-3)Gal(b1-3)[Fuc(a1-4)]GlcNAc(b1-3)Gal(b1-4)[Fuc(a1-3)]GlcNAc
Summary of the method: as §1

[44] = target: Neu5Ac(a2-3)Gal(b1-3)[Neu5Ac(a2-3)Gal(b1-4)]GlcNAc
Summary of the method: as §1

[45] = target: Neu5Ac(a2-3)Gal(b1-3)[Neu5Ac(a2-6)]GalNAc
Summary of the method: as §1

[46] = target: Neu5Ac(a2-3)Gal(b1-4)Glc
Summary of the method: as §1

[47] = target: Neu5Ac(a2-3)Gal(b1-4)GlcNAc
Summary of the method: as §1

[48] = target: Neu5Ac(a2-3)Gal(b1-4)GlcNAc(b1-2)Man(a1-3)[GlcNAc(b1-2)Man(b1-4)GlcNAc(b1-2)Man(a1-6)]Man(b1-4)GlcNAc(b1-4)GlcNAc
Summary of the method: as §1

[49] = target: Neu5Ac(a2-3)Gal(b1-4)GlcNAc(b1-2)Man(a1-3)[Neu5Ac(a2-6)Gal(b1-4)GlcNAc(b1-2)Man(a1-6)]Man(b1-4)GlcNAc(b1-4)GlcNAc
Summary of the method: as §1

[50] = target: Neu5Ac(a2-3)Gal(b1-4)GlcNAc(b1-3)Gal(b1-3)GlcNAc
Summary of the method: as §1

[51] = target: Neu5Ac(a2-3)Gal(b1-4)GlcNAc(b1-3)Gal(b1-4)GlcNAc
Summary of the method: as §1

[52] = target: Neu5Ac(a2-3)Gal(b1-4)GlcNAc(b1-3)Gal(b1-4)GlcNAc(b1-3)Gal(b1-4)GlcNAc
Summary of the method: as §1

[53] = target: Neu5Ac(a2-3)Gal(b1-4)GlcNAc(b1-3)Gal(b1-4)[Fuc(a1-3)]GlcNAc
Summary of the method: as §1

[54] = target: Neu5Ac(a2-3)Gal(b1-4)GlcNAc(b1-3)GalNAc
Summary of the method: as §1

[55] = target: Neu5Ac(a2-3)Gal(b1-4)GlcNAc(b1-6)[Gal(b1-3)]GalNAc
Summary of the method: as §1

[56] = target: Neu5Ac(a2-3)Gal(b1-4)GlcNAc(b1-6)[Neu5Ac(a2-3)Gal(b1-3)]GalNAc
Summary of the method: as §1

[57] = target: Neu5Ac(a2-3)Gal(b1-4)GlcNAc6S
Summary of the method: as §1

[58] = target: Neu5Ac(a2-3)Gal(b1-4)[Fuc(a1-3)]GlcNAc
Summary of the method: as §1

B1: SBD (Rhizopus oryzae), P07683 (protein)
chain: ASIPSSASVQLDSYNYDGSTFSGKIYVKNIAYSKKVTVVYADGSDNWNNNGNIIAASFSGPISGSNYEYWTFSASVKGIKEFYIKYEVSGKTYYDNNNSANYQVS
- glycan array binding signal (z-score) [1]: -0.586
- glycan array binding signal (z-score) [2]: 0.143
- glycan array binding signal (z-score) [3]: -0.42
- glycan array binding signal (z-score) [4]: -1.11
- glycan array binding signal (z-score) [5]: 0.094
- glycan array binding signal (z-score) [6]: 0.627
- glycan array binding signal (z-score) [7]: 0.62
- glycan array binding signal (z-score) [8]: 0.079
- glycan array binding signal (z-score) [9]: -0.147
- glycan array binding signal (z-score) [10]: 0.816
- glycan array binding signal (z-score) [11]: -0.022
- glycan array binding signal (z-score) [12]: -0.009
- glycan array binding signal (z-score) [13]: 5.61
- glycan array binding signal (z-score) [14]: 1.47
- glycan array binding signal (z-score) [15]: 0.497
- glycan array binding signal (z-score) [16]: 0.064
- glycan array binding signal (z-score) [17]: -0.385
- glycan array binding signal (z-score) [18]: -0.313
- glycan array binding signal (z-score) [19]: -0.179
- glycan array binding signal (z-score) [20]: -0.171
- glycan array binding signal (z-score) [21]: -0.011
- glycan array binding signal (z-score) [22]: -0.138
- glycan array binding signal (z-score) [23]: -0.395
- glycan array binding signal (z-score) [24]: -0.347
- glycan array binding signal (z-score) [25]: -0.313
- glycan array binding signal (z-score) [26]: 0.028
- glycan array binding signal (z-score) [27]: -0.179
- glycan array binding signal (z-score) [28]: -0.08
- glycan array binding signal (z-score) [29]: -0.41
- glycan array binding signal (z-score) [30]: -0.148
- glycan array binding signal (z-score) [31]: -0.192
- glycan array binding signal (z-score) [32]: -0.24
- glycan array binding signal (z-score) [33]: -0.286
- glycan array binding signal (z-score) [34]: -0.155
- glycan array binding signal (z-score) [35]: -0.118
- glycan array binding signal (z-score) [36]: -1.43
- glycan array binding signal (z-score) [37]: 0.018
- glycan array binding signal (z-score) [38]: -1.29
- glycan array binding signal (z-score) [39]: 2
- glycan array binding signal (z-score) [40]: -0.348
- glycan array binding signal (z-score) [41]: -0.54
- glycan array binding signal (z-score) [42]: 0.817
- glycan array binding signal (z-score) [43]: 0.126
- glycan array binding signal (z-score) [44]: -0.212
- glycan array binding signal (z-score) [45]: -0.178
- glycan array binding signal (z-score) [46]: 0.031
- glycan array binding signal (z-score) [47]: -0.182
- glycan array binding signal (z-score) [48]: -0.81
- glycan array binding signal (z-score) [49]: 0.006
- glycan array binding signal (z-score) [50]: -0.81
- glycan array binding signal (z-score) [51]: -0.264
- glycan array binding signal (z-score) [52]: -0.668
- glycan array binding signal (z-score) [53]: -0.067
- glycan array binding signal (z-score) [54]: 0.14
- glycan array binding signal (z-score) [55]: 0.031
- glycan array binding signal (z-score) [56]: -0.106
- glycan array binding signal (z-score) [57]: 0.394
- glycan array binding signal (z-score) [58]: -0.06

From the supplement of paper PMC8728848
